From US20050234065A1, “Dipeptidyl peptidase-IV inhibitors” (Pfizer Inc, priority 2004, published 2005)
Some entries share one result that the patent states for a list of compounds.

Protein sequences, listed by entry. Tags and fused reporters are not part of them.
UniProt P27487, whole entry, species assumed: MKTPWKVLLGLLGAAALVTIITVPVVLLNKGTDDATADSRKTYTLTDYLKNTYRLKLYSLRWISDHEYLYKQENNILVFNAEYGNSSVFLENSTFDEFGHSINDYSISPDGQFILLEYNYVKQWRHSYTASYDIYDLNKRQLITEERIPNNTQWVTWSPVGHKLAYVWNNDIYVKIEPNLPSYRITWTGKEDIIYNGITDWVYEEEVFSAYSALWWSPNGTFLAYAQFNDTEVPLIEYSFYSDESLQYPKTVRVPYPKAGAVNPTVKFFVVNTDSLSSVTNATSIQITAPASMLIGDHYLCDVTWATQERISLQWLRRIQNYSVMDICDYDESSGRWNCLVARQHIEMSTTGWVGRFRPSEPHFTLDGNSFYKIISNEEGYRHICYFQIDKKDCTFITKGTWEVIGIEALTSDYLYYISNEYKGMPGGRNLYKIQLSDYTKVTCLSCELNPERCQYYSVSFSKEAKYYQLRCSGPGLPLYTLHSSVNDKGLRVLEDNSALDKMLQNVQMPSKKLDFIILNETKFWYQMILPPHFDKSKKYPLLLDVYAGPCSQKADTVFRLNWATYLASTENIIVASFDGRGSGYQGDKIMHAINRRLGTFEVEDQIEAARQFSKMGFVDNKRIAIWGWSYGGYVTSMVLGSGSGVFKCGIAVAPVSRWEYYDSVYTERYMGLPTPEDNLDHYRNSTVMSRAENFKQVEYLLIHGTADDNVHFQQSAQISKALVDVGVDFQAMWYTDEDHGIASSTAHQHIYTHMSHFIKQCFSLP

biological target: T1, DPP-IV (Homo sapiens, UniProt P27487); experiment: In vitro assay for dipeptidyl peptidase inhibition; type: biochemical; conditions: hydrochloride salts; Gly-Pro-4-methoxy B naphthylamide substrate; overnight at 37° C.; read-out: IC50 (concentration of test compound required for 50% inhibition), bound given in μM
T1 construct: purchased Enzyme Systems Products SPE-01
Procedure: 150 μL of an enzyme-substrate solution was pipetted into microtiter wells of a polystyrene 96-well plate, and maintained at 4° C. The enzyme-substrate solution comprised 50 μM Gly-Pro-4-methoxy B naphthylamide HCl in 50 mM Tris assay buffer pH 7.3 containing 0.1M sodium chloride, 0.1% (v/v) Triton and 50 μU/mL DPP-IV (Enzyme Systems Products Cat#SPE-01, DPP-IV 5 mU/mL stock). 5 μL/well of compounds of Formula (I) were added, bringing the final compound of Formula (I) concentrations to 3 μM-10 nM per well.
Controls. Enzyme was omitted from four (4) wells, as a reagent blank. 5 μL of 3 mM Diprotin A was added to four wells as a positive quality control, providing a final Diprotin A concentration of 100 μM. To measure total enzyme activity (i.e. a negative control), without the influence of any compounds of Formula (I), 5 μL of distilled water was added to four wells.
The entire assay was incubated overnight (about 14-18 hours) at 37° C.

Row | Compound | IC50 [µM]
1 | N[C@H](C(=O)N1CCCC1)[C@H]1CC[C@@H](NC(=O)[C@@H]2CCCN2C(=O)OCc2ccccc2)CC1 [Example 3, (2S)-2-[cis-4-(1-(1S)-amino-2-oxo-2-pyrrolidin-1-yl-ethyl)-cyclohexylcarbamoyl]-pyrrolidine-1-carboxylic acid benzyl ester] | ≤ 1
2 | N[C@H](C(=O)N1CCCC1)[C@H]1CC[C@@H](NC(=O)CNC(=O)OCc2ccccc2)CC1 [Example 2, {[cis-4-((1S)-1-amino-2-oxo-2-pyrrolidin-1-yl-ethyl)-cyclohexylcarbamoyl]-methyl}-carbamic acid benzyl ester] | ≤ 1
3 | N[C@H](C(=O)N1CCCC1)[C@H]1CC[C@@H](NC(=O)CNC(=O)c2ccccc2)CC1 [Example 1, N-{[cis-4-((1S)-1-amino-2-oxo-2-pyrrolidin-1-yl-ethyl)-cyclohexylcarbamoyl]-methyl}-benzamide] | ≤ 1
